According to article PMC12502668:
No constants are given. Whether binding was seen depends on the method and setting.

Tests used:
[1] = molecular target: SpoIVB_(75-426-S378A) (B. subtilis) (UniProt P17896); assay: SEC; Superdex 200 Increase 10/300 GL, 20 mM Tris pH 7.4, 200 mM NaCl, 5% glycerol; self-association; both purified
[2] = molecular target: SpoIVB_(75-426-S378A) (B. subtilis) (UniProt P17896); assay: SAXS; BL19U2, 283 K, 1, 2 and 3.7 mg/mL; molecular weight by SAXSMoW; self-association; both purified
[3] = molecular target: SpoIVB_(75-426-S378A) (B. subtilis) (UniProt P17896); assay: dynamic light scattering; Nano ZS, 25°C, 20 mM Tris pH 7.4, 200 mM NaCl, 5% glycerol; 0.10, 0.25 and 0.50 mg/mL; self-association; both purified

B1: SpoIVB_(75-426-S378A) (domain or fragment, UniProt P17896 75-426)
chain: TGKKSGESELVYDLAGFPIKKTKVHVLPDLKVIPGGQSIGVKLHSVGVLVVGFHQINTSEGKKSPGETAGIEAGDIIIEMNGQKIEKMNDVAPFIQKAGKTGESLDLLIKRDKQKIKTKLIPEKDEGEGKYRIGLYIRDSAAGIGTMTFYEPKTKKYGALGHVISDMDTKKPIVVENGEIVKSTVTSIEKGTGGNPGEKLARFSSERKTIGDINRNSPFGIFGTLHQPIQNNISDQALPVAFSTEVKKGPAEILTVIDDDKVEKFDIEIVSTTPQKFPATKGMVLKITDPRLLKETGGIVQGMAGSPIIQNGKVIGAVTHVFVNDPTSGYGVHIEWMLSEAGIDIYGKEKAS
In the case of B1, the binding [1] is reported as “no binding”, the binding [2] is reported as “no binding (tested: 3.7 mg/mL)” and the binding [3] is reported as “no binding (tested: 0.10, 0.25 and 0.50 mg/mL)”.
